Source: the supplement of paper PMC10338343
± gives the standard deviation. The list shows a part of the results, in another mix than the full data. Many of these values have a large error. This is one part of the list.

Legend:
[1] = tested on: MILI (PIWIL2) piRISC loaded with L1MC piRNA (26 nt); assay: pre-steady-state target cleavage rate (min^-1); higher = faster piRNA-guided slicing of the target; conditions: guide: L1MC piRNA 5'p-UAACUAAAUACUAUGCAAGCUGUAGG
In short: (§1)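 Sequencing of uncleaved targets, normalised to depth and to weakly complementary targets, was the readout of this Cleave-'n-Seq assay. A transcribed, DNA-blocked target RNA library (0.1 nM) was mixed with 1 nM active affinity-purified piRISC carrying one synthetic guide, with or without 500 nM GTSF1 partner protein, in HEPES–potassium acetate buffer at 33 °C for 0–8 or 0–960 min. Three trials were pooled, k3 was capped at 0.0001 min^-1, and a burst-and-steady-state fit gave the pre-steady-state cleavage rate.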

[2] = tested on: MIWI (PIWIL1) piRISC loaded with L1MC piRNA (30 nt); assay: as above; conditions: guide: L1MC piRNA 5'p-UAACUAAAUACUAUGCAAGCUGUAGGUCCU
In short: as §1

[3] = tested on: EfPiwi piRISC loaded with L1MC piRNA (26 nt); assay: pre-steady-state target cleavage rate (min^-1); guide: L1MC piRNA 5'p-UAACUAAAUACUAUGCAAGCUGUAGG; MIWI and MILI are mouse PIWI proteins and EfPiwi is from a freshwater sponge; tags in brackets are library labels; higher = faster piRNA-guided slicing of the target
In short: as §1

[4] = auxiliary factor: none (no GTSF1)
[5] = auxiliary factor: 500 nM mouse GTSF1
[6] = auxiliary factor: 500 nM Ephydatia muelleri Gtsf1
[7] = auxiliary factor: none (no Gtsf1)

Row | Sequence | pre-steady-state target cleavage rate [1, 4] | pre-steady-state target cleavage rate [2, 5] | pre-steady-state target cleavage rate [2, 4] | pre-steady-state target cleavage rate [3, 6] | pre-steady-state target cleavage rate [3, 7] | pre-steady-state target cleavage rate [1, 5]
1 | UCCUGGAUGAGCUUGCAUAGUUUUAAGUUA | 0.00247 ± 0.0029 | 0.0288 ± 0.0084 | 0.00673 ± 0.0032 | 0.00123 ± 0.0042 | 0.000258 ± 0.042 | –
2 | UCCUGGAUCAGCUUGCAUAUGUAUUUAGUUA | 0.00162 ± 0.0053 | 0.00291 ± 0.005 | 0.00154 ± 0.0049 | 0.000543 ± 0.01 | 0.000201 ± 0.042 | –
3 | UCCUGGAUGUCGUUGCAUAGUGAUUUAGUUA | – | 0.000634 ± 0.016 | 0.00177 ± 0.0062 | 0.0012 ± 0.0085 | 0.000219 ± 0.039 | 0.003 ± 0.0046
4 | UCCUGGAUGUGGUUGCAUAGUAUUUAGAAA | 0.00112 ± 0.0096 | 0.00192 ± 0.0091 | 0.000474 ± 0.012 | 0.00115 ± 0.0082 | 0.00155 ± 0.0085 | –
5 | UCCUGGAUGAGCUUGCAUGAGUAUUUAGUUA | 0.00109 ± 0.0051 | 0.00111 ± 0.01 | 0.000568 ± 0.0088 | 0.000583 ± 0.0073 | 0.000151 ± 0.033 | –
6 | UCCUGGAUGUCGAAGCAUAGUAUUGUAGUUA | 0.0009 ± 0.0077 | 0.000884 ± 0.0091 | 0.000467 ± 0.014 | 0.000775 ± 0.011 | 0.0004 ± 0.016 | –
7 | UCCUCCUACACGUUGCAUAGUAUUUUCAAA | 0.00129 ± 0.0046 | – | 0.000944 ± 0.0068 | 0.00147 ± 0.0053 | 0.000174 ± 0.026 | –
8 | UCCUGGAACAGCUUGGUAAGUAUUUUCAAA | 0.000698 ± 0.0093 | 0.00122 ± 0.01 | 0.00069 ± 0.012 | 0.00119 ± 0.0047 | 0.000528 ± 0.014 | –
9 | UCCUGGAAGUCCUUGCAUAGUAUUUAGAAA | 0.00158 ± 0.0036 | – | 0.00214 ± 0.003 | 0.00315 ± 0.0023 | 0.000113 ± 0.023 | –
10 | UCCUGGAACACCUUGCAUAGUUUUUAGUUA | 0.00231 ± 0.003 | 0.148 ± 0.023 | 0.0142 ± 0.0044 | 0.0022 ± 0.0033 | 0.000453 ± 0.018 | –
11 | UCCUGGUACAGCUUCGAUAGUAUUUACAAA | 0.000879 ± 0.0054 | – | 0.000864 ± 0.0049 | 0.00595 ± 0.0049 | 0.000395 ± 0.019 | –
12 | UCCUGGUACACGAUGCAUAGUAUUUACAAA | 0.00231 ± 0.0042 | 0.00297 ± 0.0066 | 0.00138 ± 0.0066 | 0.000739 ± 0.0049 | 0.000313 ± 0.032 | –
13 | UCCUGCUACAGCUUGCAUAGUAUUAUGUAA | 0.000725 ± 0.0089 | – | 0.00153 ± 0.0052 | 0.00194 ± 0.0019 | 0.000172 ± 0.017 | –
14 | UCCUGGAUGAGCUUGCAUAGUAUUUAUUUA | 0.002 ± 0.0046 | 0.267 ± 0.055 | 0.025 ± 0.0077 | 0.00435 ± 0.0029 | 0.00133 ± 0.0082 | –
15 | UCCUGGAUGUCCUUGCAUAGUUAUUAGUUA | 0.0025 ± 0.0033 | 0.00289 ± 0.0037 | 0.00164 ± 0.0048 | 0.00117 ± 0.0068 | 0.000472 ± 0.014 | –
16 | UCCUGGAACAGCUUGUAUAGUAUUUAGUUA | – | 1.37 ± 0.056 | 0.0564 ± 0.012 | 0.0686 ± 0.013 | 0.00519 ± 0.0044 | 0.323 ± 0.017

Row | Sequence | pre-steady-state target cleavage rate [1, 4] | pre-steady-state target cleavage rate [2, 5] | pre-steady-state target cleavage rate [2, 4] | pre-steady-state target cleavage rate [3, 6] | pre-steady-state target cleavage rate [3, 7] | pre-steady-state target cleavage rate [1, 5]
17 | UCCUGGAUGUCGUUGCAUAGUAUGUAGUUA | 0.00222 ± 0.0041 | 0.000773 ± 0.01 | 0.00155 ± 0.0046 | 0.000867 ± 0.0085 | 0.000325 ± 0.023 | –
18 | UCCUGGAUGUCGUUGCAUAGUAUUUAGCUA | 0.00045 ± 0.013 | 0.00197 ± 0.0056 | 0.00116 ± 0.0063 | 0.000503 ± 0.0084 | < 0.0001 | –
19 | UCCUGCUACAGCUUGCAAUCUAUUUUCAAA | 0.000102 ± 0.029 | 0.00167 ± 0.0051 | 0.000219 ± 0.019 | 0.000242 ± 0.011 | < 0.0001 | –
20 | UCCUGGAUGUCGUUGCAUAGUAUUUAGAUA | 0.00206 ± 0.0038 | 0.00174 ± 0.0064 | 0.00217 ± 0.0038 | 0.000779 ± 0.0034 | 0.00063 ± 0.01 | –
21 | UCCUGGUACAGCUUGCAUAGUUAAUACAAA | 0.000999 ± 0.0063 | 0.00427 ± 0.0047 | 0.000634 ± 0.0072 | 0.000598 ± 0.0054 | 0.000755 ± 0.011 | –
22 | UCCUGGAUGUCGUUGCAAAGUAUUUUGUUA | 0.00153 ± 0.0048 | 0.000755 ± 0.013 | 0.000155 ± 0.02 | 0.000284 ± 0.013 | 0.000128 ± 0.054 | –
23 | UCCUGGAUGAGCAACCAUAGUAUUUAGUUA | 0.00186 ± 0.0037 | 0.00173 ± 0.005 | 0.000335 ± 0.012 | 0.00159 ± 0.0037 | 0.000276 ± 0.031 | –
24 | UCCUGGAUCACGUUGCAUAGUAUUUACAAA | 0.0017 ± 0.0042 | 0.00232 ± 0.005 | 0.00186 ± 0.0038 | 0.0017 ± 0.0063 | 0.000367 ± 0.021 | –
25 | UCCUGGAACACGAUGCAUAGUAUUUACAAA | 0.00131 ± 0.0048 | 0.00291 ± 0.0059 | 0.00169 ± 0.0049 | 0.00408 ± 0.0037 | 0.000487 ± 0.013 | –
26 | UCCUGGAUGUGCUUGGUUAGUAUUUAGAAA | 0.0031 ± 0.0034 | 0.000578 ± 0.015 | 0.00133 ± 0.0062 | 0.000372 ± 0.011 | 0.000157 ± 0.078 | –
27 | UCCUGGAUGUCGAAGCAUAGUAUUUAGUAA | 0.00224 ± 0.0026 | 0.00186 ± 0.006 | 0.000994 ± 0.0064 | 0.00141 ± 0.0042 | 0.000224 ± 0.031 | –
28 | UCCUGGAUCAGCUUGCAUGAGUAUUUAGUUA | 0.00134 ± 0.0051 | 0.00199 ± 0.0063 | 0.000312 ± 0.013 | 0.000452 ± 0.016 | 0.000281 ± 0.021 | –
29 | UCCUGGAUGUCGUAGCAUAGUAUUUAGAUA | 0.000566 ± 0.011 | 0.000965 ± 0.0094 | 0.00025 ± 0.017 | 0.00105 ± 0.0061 | 0.000554 ± 0.011 | –
30 | UCCUCCUACAGCUUGCAAAGUAUUUACAAA | 0.00134 ± 0.0045 | 0.267 ± 0.036 | 0.00344 ± 0.0031 | 0.00274 ± 0.0029 | 0.000112 ± 0.024 | –
31 | UCCUGGAUCAGCUUGCAUAGUAAUUUCAAA | 0.000751 ± 0.0061 | – | 0.000357 ± 0.0081 | 0.00308 ± 0.0043 | 0.000466 ± 0.012 | –
32 | UCCUGGAUGAGCUUGCAUAGUAUUAGUUA | 0.000845 ± 0.011 | 0.00334 ± 0.0036 | 0.00227 ± 0.0036 | 0.00121 ± 0.0031 | 0.000262 ± 0.02 | –
